From US20050153366, “Protein-protein interaction antagonist screening libraries based upon 1,4-disubstituted naphthalenes and related scaffolds” (published 2005)
For at least one entry, the source does not settle the construct or the ends of the probe.

Tested on: HOXA1 (residues 192-288)/PBX1 (residues 233-319) complex
Assay: EMSA
Settings: ternary complex formed; 10 mM HEPES pH 7.9, 1 mM EDTA, 135 mM NaCl, poly dIdC, about 22 C; disrupted by small molecules (compound 31 IC50 65 uM, compound 15 IC50 173 uM); purified recombinant protein; label: 32P (Klenow fill-in with alpha-32P-dCTP)

## CTCTCCTTTTGATTGATTAA / AGAGCTTAATCAATCAAAAGG [HOXPBX-CT probe]
  binding result: binds
